The reference is the same well before dosing, and untreated signal decays as well.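 Fibroblast labels denote human fibroblasts, mainly primary ones from uterus (C12385, HUF), lung (H6013), bone (Hs27A), adrenal (HADF) and skin (WS1), plus mammary HMF and breast cancer-associated Hs343T. Cancer cells are basal-like or mesenchymal-like triple-negative breast cancer lines. A hit is a response shift exceeding 3x replicate standard deviation. The tissue of the other fibroblasts is not given here.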
Test system: HCC1143
Test: relative JC-1 red fluorescence (viability) vs pre-drug, coculture with fibroblast (fraction); higher = more viable cancer cells
Protocol: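 JC-1 labelled TNBC cells cocultured 1:1 (1,500 cells each) with CellTrace Violet stained primary or stromal fibroblasts in 384-well plates in FluoroBrite medium, treated with one of 42 anticancer drugs at 0.1, 1, 10 or 100 uM. JC-1 red fluorescence (mitochondrial integrity in cancer cells only) was read by plate reader every 8 h for 72 h. Values are normalised to each well's pre-drug value. The stock of one drug was tenfold lower, so its dose labels may be too high.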

C#Cc1cccc(Nc2ncnc3cc(OCCOC)c(OCCOC)cc23)c1 [Erlotinib]
relative JC-1 red fluorescence
Conditions | 8 h | 16 h | 24 h | 32 h | 40 h | 48 h | 56 h | 64 h | 72 h
0.1 µM, coculture fibroblast: C12385 | 0.88 | 0.796 | 0.728 | 0.656 | 0.575 | 0.514 | 0.461 | 0.428 | 0.41
0.1 µM, coculture fibroblast: H6013 | 0.726 | 0.642 | 0.601 | 0.588 | 0.501 | 0.488 | 0.4519 | 0.435 | 0.408
0.1 µM, coculture fibroblast: H6019 | 0.7932 | 0.716 | 0.663 | 0.589 | 0.547 | 0.508 | 0.452 | 0.405 | 0.368
0.1 µM, coculture fibroblast: H6076 | 0.8335 | 0.794 | 0.761 | 0.718 | 0.685 | 0.677 | 0.653 | 0.626 | 0.645
0.1 µM, coculture fibroblast: H6231 | 0.822 | 0.837 | 0.757 | 0.644 | 0.642 | 0.611 | 0.564 | 0.529 | 0.499
0.1 µM, coculture fibroblast: HADF | 0.7189 | 0.62 | 0.579 | 0.592 | 0.482 | 0.463 | 0.429 | 0.402 | 0.386
0.1 µM, coculture fibroblast: HCFa | 0.756 | 0.672 | 0.635 | 0.622 | 0.523 | 0.494 | 0.448 | 0.415 | 0.399
0.1 µM, coculture fibroblast: HCPF | 0.7762 | 0.793 | 0.721 | 0.6 | 0.623 | 0.591 | 0.5469 | 0.5072 | 0.4882
0.1 µM, coculture fibroblast: HHSteC | 0.8147 | 0.7205 | 0.693 | 0.649 | 0.571 | 0.54 | 0.497 | 0.474 | 0.446
0.1 µM, coculture fibroblast: HMF | 0.797 | 0.829 | 0.771 | 0.659 | 0.677 | 0.648 | 0.605 | 0.574 | 0.545
0.1 µM, coculture fibroblast: HPFa | 0.9315 | 0.857 | 0.812 | 0.7374 | 0.682 | 0.637 | 0.57 | 0.508 | 0.464
0.1 µM, coculture fibroblast: HUF | 0.88 | 0.795 | 0.756 | 0.69 | 0.652 | 0.619 | 0.574 | 0.544 | 0.515
0.1 µM, coculture fibroblast: Hs5 | 0.84 | 0.856 | 0.793 | 0.7435 | 0.6952 | 0.66 | 0.625 | 0.588 | 0.574
0.1 µM, coculture fibroblast: Hs27A | 0.721 | 0.645 | 0.609 | 0.629 | 0.506 | 0.485 | 0.432 | 0.398 | 0.376
0.1 µM, coculture fibroblast: Hs343T | 0.8156 | 0.851 | 0.769 | 0.66 | 0.659 | 0.626 | 0.578 | 0.554 | 0.526
0.1 µM, coculture fibroblast: WS1 | 0.867 | 0.79 | 0.764 | 0.715 | 0.678 | 0.636 | 0.595 | 0.562 | 0.546
1 µM, coculture fibroblast: C12385 | 0.839 | 0.78 | 0.726 | 0.659 | 0.488 | 0.447 | 0.415 | 0.389 | 0.385
1 µM, coculture fibroblast: H6013 | 0.7444 | 0.673 | 0.632 | 0.618 | 0.563 | 0.569 | 0.541 | 0.533 | 0.5
1 µM, coculture fibroblast: H6019 | 0.837 | 0.799 | 0.77 | 0.725 | 0.688 | 0.666 | 0.622 | 0.581 | 0.5456
1 µM, coculture fibroblast: H6076 | 0.8188 | 0.845 | 0.8185 | 0.755 | 0.732 | 0.697 | 0.657 | 0.6428 | 0.6444
1 µM, coculture fibroblast: H6231 | 0.828 | 0.8736 | 0.812 | 0.647 | 0.719 | 0.682 | 0.644 | 0.601 | 0.561
1 µM, coculture fibroblast: HADF | 0.7 | 0.643 | 0.613 | 0.626 | 0.527 | 0.494 | 0.456 | 0.429 | 0.417
1 µM, coculture fibroblast: HCFa | 0.785 | 0.729 | 0.691 | 0.684 | 0.598 | 0.566 | 0.518 | 0.481 | 0.46
1 µM, coculture fibroblast: HCPF | 0.796 | 0.831 | 0.791 | 0.6619 | 0.709 | 0.669 | 0.636 | 0.608 | 0.595
1 µM, coculture fibroblast: HHSteC | 0.834 | 0.784 | 0.7503 | 0.729 | 0.663 | 0.638 | 0.601 | 0.572 | 0.536
1 µM, coculture fibroblast: HMF | 0.789 | 0.85059 | 0.7894 | 0.658 | 0.702 | 0.663 | 0.622 | 0.601 | 0.571
1 µM, coculture fibroblast: HPFa | 0.9059 | 0.849 | 0.832 | 0.746 | 0.698 | 0.66 | 0.599 | 0.558 | 0.518
1 µM, coculture fibroblast: HUF | 0.874 | 0.8 | 0.749 | 0.675 | 0.635 | 0.596 | 0.545 | 0.51 | 0.484
1 µM, coculture fibroblast: Hs5 | 0.8363 | 0.827 | 0.801 | 0.7679 | 0.6992 | 0.673 | 0.64 | 0.625 | 0.6
1 µM, coculture fibroblast: Hs27A | 0.704 | 0.639 | 0.597 | 0.612 | 0.482 | 0.46 | 0.413 | 0.382 | 0.373
1 µM, coculture fibroblast: Hs343T | 0.808 | 0.832 | 0.779 | 0.701 | 0.704 | 0.67 | 0.627 | 0.611 | 0.586
1 µM, coculture fibroblast: WS1 | 0.839 | 0.779 | 0.731 | 0.651 | 0.593 | 0.539 | 0.495 | 0.452 | 0.424
10 µM, coculture fibroblast: C12385 | 0.882 | 0.833 | 0.769 | 0.712 | 0.649 | 0.617 | 0.588 | 0.559 | 0.537
10 µM, coculture fibroblast: H6013 | 0.771 | 0.713 | 0.68 | 0.678 | 0.593 | 0.589 | 0.558 | 0.549 | 0.547
10 µM, coculture fibroblast: H6019 | 0.833 | 0.7702 | 0.722 | 0.655 | 0.609 | 0.5825 | 0.54494 | 0.518 | 0.49
10 µM, coculture fibroblast: H6076 | 0.814 | 0.8661 | 0.841 | 0.748 | 0.77 | 0.755 | 0.723 | 0.697 | 0.694
10 µM, coculture fibroblast: H6231 | 0.832 | 0.889 | 0.836 | 0.661 | 0.755 | 0.722 | 0.694 | 0.65 | 0.612
10 µM, coculture fibroblast: HADF | 0.719 | 0.654 | 0.631 | 0.669 | 0.565 | 0.534 | 0.514 | 0.496 | 0.54
10 µM, coculture fibroblast: HCFa | 0.774 | 0.706 | 0.685 | 0.698 | 0.596 | 0.561 | 0.527 | 0.494 | 0.511
10 µM, coculture fibroblast: HCPF | 0.8016 | 0.873 | 0.8437 | 0.684 | 0.76297 | 0.7265 | 0.6992 | 0.657 | 0.646
10 µM, coculture fibroblast: HHSteC | 0.851 | 0.794 | 0.779 | 0.7782 | 0.696 | 0.662 | 0.636 | 0.62 | 0.615
10 µM, coculture fibroblast: HMF | 0.7925 | 0.841 | 0.802 | 0.667 | 0.6956 | 0.674 | 0.632 | 0.608 | 0.585
10 µM, coculture fibroblast: HPFa | 0.94783 | 0.8693 | 0.831 | 0.7371 | 0.686 | 0.656 | 0.5976 | 0.5632 | 0.5255
10 µM, coculture fibroblast: HUF | 0.912 | 0.84 | 0.799 | 0.731 | 0.691 | 0.659 | 0.597 | 0.548 | 0.527
10 µM, coculture fibroblast: Hs5 | 0.8652 | 0.934 | 0.893 | 0.825 | 0.79 | 0.7637 | 0.735 | 0.706 | 0.694
10 µM, coculture fibroblast: Hs27A | 0.72 | 0.66 | 0.621 | 0.66 | 0.526 | 0.494 | 0.462 | 0.438 | 0.491
10 µM, coculture fibroblast: Hs343T | 0.808 | 0.884 | 0.843 | 0.701 | 0.755 | 0.7291 | 0.685 | 0.665 | 0.633
10 µM, coculture fibroblast: WS1 | 0.873 | 0.825 | 0.781 | 0.72 | 0.674 | 0.636 | 0.589 | 0.557 | 0.529
100 µM, coculture fibroblast: C12385 | 0.878 | 0.8448 | 0.7883 | 0.748 | 0.689 | 0.6582 | 0.65 | 0.62 | 0.6142
100 µM, coculture fibroblast: H6013 | 0.826 | 0.765 | 0.7284 | 0.734 | 0.656 | 0.6576 | 0.6434 | 0.633 | 0.655
100 µM, coculture fibroblast: H6019 | 0.905 | 0.885 | 0.875 | 0.836 | 0.834 | 0.851 | 0.847 | 0.849 | 0.836
100 µM, coculture fibroblast: H6076 | 0.834 | 0.815 | 0.7969 | 0.763 | 0.734 | 0.725 | 0.717 | 0.718 | 0.742
100 µM, coculture fibroblast: H6231 | 0.834 | 0.899 | 0.85 | 0.705 | 0.76 | 0.723 | 0.69 | 0.658 | 0.646
100 µM, coculture fibroblast: HADF | 0.776 | 0.7379 | 0.7143 | 0.7546 | 0.6433 | 0.617 | 0.5964 | 0.583 | 0.648
100 µM, coculture fibroblast: HCFa | 0.847 | 0.829 | 0.8112 | 0.813 | 0.72 | 0.701 | 0.67 | 0.64 | 0.652
100 µM, coculture fibroblast: HCPF | 0.856 | 0.943 | 0.914 | 0.732 | 0.832 | 0.778 | 0.754 | 0.724 | 0.714
100 µM, coculture fibroblast: HHSteC | 0.907 | 0.865 | 0.851 | 0.827 | 0.762 | 0.7452 | 0.7224 | 0.703 | 0.678
100 µM, coculture fibroblast: HMF | 0.831 | 0.901 | 0.85 | 0.729 | 0.77 | 0.733 | 0.7 | 0.677 | 0.654
100 µM, coculture fibroblast: HPFa | 0.907 | 0.849 | 0.83 | 0.748 | 0.717 | 0.709 | 0.672 | 0.658 | 0.643
100 µM, coculture fibroblast: HUF | 0.952 | 0.892 | 0.859 | 0.777 | 0.73 | 0.703 | 0.67 | 0.649 | 0.622
100 µM, coculture fibroblast: Hs5 | 0.875 | 0.948 | 0.939 | 0.8925 | 0.8658 | 0.831 | 0.809 | 0.791 | 0.774
100 µM, coculture fibroblast: Hs27A | 0.8027 | 0.777 | 0.74 | 0.79 | 0.664 | 0.664 | 0.64 | 0.629 | 0.667
100 µM, coculture fibroblast: Hs343T | 0.8325 | 0.885 | 0.838 | 0.734 | 0.757 | 0.728 | 0.693 | 0.672 | 0.646
100 µM, coculture fibroblast: WS1 | 0.893 | 0.848 | 0.817 | 0.762 | 0.736 | 0.7 | 0.657 | 0.636 | 0.614

Reference: the supplement of paper PMC6078165
